# Reference: the supplement of paper PMC8728848
# The list shows a part of the results.
# Legend:
# Assay in all cases: glycan array binding signal (z-score within array); higher = stronger binding
# Settings in all cases: glycan notation: IUPAC condensed, linker removed
# [1] = target: Fuc(a1-2)Gal(b1-4)GlcNAc(b1-3)Gal(b1-4)GlcNAc(b1-2)Man(a1-3)[Fuc(a1-2)Gal(b1-4)GlcNAc(b1-3)Gal(b1-4)GlcNAc(b1-2)Man(a1-6)]Man(b1-4)GlcNAc(b1-4)GlcNAc
# How it was run: (§1)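 Negative Z-scores can be read as non-binding. The Z-score is calculated within each array and then averaged across arrays of one protein sequence at different concentrations or buffers and across linkers. Arrays, 3228 in all, were curated from the Consortium for Functional Glycomics database and kept only where the protein sequence was available.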
# [2] = target: Fuc(a1-2)Gal(b1-4)GlcNAc(b1-3)Gal(b1-4)GlcNAc(b1-3)Gal(b1-4)GlcNAc
# How it was run: as §1
# [3] = target: Fuc(a1-2)Gal(b1-4)GlcNAc(b1-3)GalNAc
# How it was run: as §1
# [4] = target: Fuc(a1-2)Gal(b1-4)GlcNAc(b1-3)[Fuc(a1-2)Gal(b1-4)GlcNAc(b1-6)]GalNAc
# How it was run: as §1
# [5] = target: Fuc(a1-2)Gal(b1-4)GlcNAc(b1-3)[Fuc(a1-3)[Gal(b1-4)]GlcNAc(b1-6)]Gal(b1-4)Glc
# How it was run: as §1
# [6] = target: Fuc(a1-2)Gal(b1-4)GlcNAc(b1-6)GalNAc
# How it was run: as §1
# [7] = target: Fuc(a1-2)Gal(b1-4)GlcNAc6S
# How it was run: as §1
# [8] = target: Fuc(a1-2)Gal(b1-4)[Fuc(a1-3)]GlcNAc
# How it was run: as §1
# [9] = target: Fuc(a1-2)Gal(b1-4)[Fuc(a1-3)]GlcNAc(b1-2)Man(a1-3)[Fuc(a1-2)Gal(b1-4)[Fuc(a1-3)]GlcNAc(b1-2)Man(a1-6)]Man(b1-4)GlcNAc(b1-4)[Fuc(a1-6)]GlcNAc
# How it was run: as §1
# [10] = target: Fuc(a1-2)Gal(b1-4)[Fuc(a1-3)]GlcNAc(b1-2)[Fuc(a1-2)Gal(b1-4)[Fuc(a1-3)]GlcNAc(b1-4)]Man(a1-3)[Fuc(a1-2)Gal(b1-4)[Fuc(a1-3)]GlcNAc(b1-2)Man(a1-6)]Man(b1-4)GlcNAc(b1-4)GlcNAc
# How it was run: as §1
# [11] = target: Fuc(a1-2)Gal(b1-4)[Fuc(a1-3)]GlcNAc(b1-3)Gal(b1-4)[Fuc(a1-3)]GlcNAc
# How it was run: as §1
# [12] = target: Fuc(a1-2)Gal(b1-4)[Fuc(a1-3)]GlcNAc(b1-3)Gal(b1-4)[Fuc(a1-3)]GlcNAc(b1-3)Gal(b1-4)[Fuc(a1-3)]GlcNAc
# How it was run: as §1
# [13] = target: Fuc(a1-2)Gal(b1-4)[Fuc(a1-3)]GlcNAc(b1-3)GalNAc
# How it was run: as §1
# [14] = target: Fuc(a1-2)Gal(b1-4)[Fuc(a1-3)]GlcNAc(b1-3)[Neu5Ac(a2-6)Gal(b1-4)GlcNAc(b1-6)]Gal(b1-4)Glc
# How it was run: as §1
# [15] = target: Fuc(a1-2)Gal3S(b1-4)GlcNAc
# How it was run: as §1
# [16] = target: Fuc(a1-2)Gal6S(b1-3)GlcNAc
# How it was run: as §1
# [17] = target: Fuc(a1-2)Gal6S(b1-3)GlcNAc6S
# How it was run: as §1
# Fuc(a1-2)Gal6S(b1-4)Glc = target: Fuc(a1-2)Gal6S(b1-4)Glc
# How it was run: as §1
# [18] = target: Fuc(a1-2)Gal6S(b1-4)Glc6S
# How it was run: as §1
# Fuc(a1-2)[Gal(a1-3)]Gal = target: Fuc(a1-2)[Gal(a1-3)]Gal
# How it was run: as §1
# [19] = target: Fuc(a1-2)[Gal(a1-3)]Gal(b1-3)GalNAc
# How it was run: as §1
# [20] = target: Fuc(a1-2)[Gal(a1-3)]Gal(b1-3)GalNAc(b1-3)Gal(a1-4)Gal(b1-4)Glc
# How it was run: as §1
# [21] = target: Fuc(a1-2)[Gal(a1-3)]Gal(b1-3)GlcNAc
# How it was run: as §1
# [22] = target: Fuc(a1-2)[Gal(a1-3)]Gal(b1-3)GlcNAc(b1-2)Man(a1-3)[Fuc(a1-2)[Gal(a1-3)]Gal(b1-3)GlcNAc(b1-2)Man(a1-6)]Man(b1-4)GlcNAc(b1-4)GlcNAc
# How it was run: as §1
# [23] = target: Fuc(a1-2)[Gal(a1-3)]Gal(b1-3)GlcNAc(b1-2)Man(a1-3)[Fuc(a1-2)[Gal(a1-3)]Gal(b1-3)GlcNAc(b1-2)Man(a1-6)]Man(b1-4)GlcNAc(b1-4)[Fuc(a1-6)]GlcNAc
# How it was run: as §1
# [24] = target: Fuc(a1-2)[Gal(a1-3)]Gal(b1-3)GlcNAc(b1-3)GalNAc
# How it was run: as §1
# [25] = target: Fuc(a1-2)[Gal(a1-3)]Gal(b1-3)GlcNAc(b1-6)GalNAc
# How it was run: as §1
# [26] = target: Fuc(a1-2)[Gal(a1-3)]Gal(b1-4)Glc
# How it was run: as §1
# [27] = target: Fuc(a1-2)[Gal(a1-3)]Gal(b1-4)GlcNAc
# How it was run: as §1
# [28] = target: Fuc(a1-2)[Gal(a1-3)]Gal(b1-4)GlcNAc(b1-2)Man
# How it was run: as §1
binder,measurement,setting,value
"AntigenI/IIC123 (Streptococcus mutans), C9E3B4 (protein) MASMTGGQQMGRIHFHYFKLAVQPQVNKEIRNNNDINIDRTLVAKQSVVKFQLKTADLPAGRDETTSFVLVDPLPSGYQFNPEATKAASPGFDVTYDNATNTVTFKATAATLATFNADLTKSVATIYPTVVGQVLNDGATYKNNFTLTVNDAYGIKSNVVRVTTPGKPNDPDNPNNNYIKPTKVNKNENGVVIDGKTVLAGSTNYYELTWDLDQYKNDRSSADTIQKGFYYVDDYPEEALELRQDLVKITDANGNEVTGVSVDNYTNLEAAPQEIRDVLSKAGIRPKGAFQIFRADNPREFYDTYVKTGIDLKIVSPMVVKKQMGQTGGSYENQAYQIDFGNGYASNIIINNVPKINPKKDVTLTLDPADTNNVDGQTIPLNTVFNYRLIGGIIPADHSEELFEYNFYDDYDQTGDHYTGQYKVFAKVDITFKDGSIIKSGAELTQYTTAEVDTAKGAITIKFKEAFLRSVSIDSAFQAESYIQMKRIAVGTFENTYINTVNGVTYSSLEHHHHHH",glycan array binding signal (z-score),[1],2.08
same,glycan array binding signal (z-score),[2],-0.137
same,glycan array binding signal (z-score),[3],-0.452
same,glycan array binding signal (z-score),[4],0.055
same,glycan array binding signal (z-score),[5],-0.804
same,glycan array binding signal (z-score),[6],3.81
same,glycan array binding signal (z-score),[7],-0.544
same,glycan array binding signal (z-score),[8],0.474
same,glycan array binding signal (z-score),[9],1.36
same,glycan array binding signal (z-score),[10],0.933
same,glycan array binding signal (z-score),[11],-0.165
same,glycan array binding signal (z-score),[12],1.4
same,glycan array binding signal (z-score),[13],0.885
same,glycan array binding signal (z-score),[14],-1.45
same,glycan array binding signal (z-score),[15],-0.555
same,glycan array binding signal (z-score),[16],-0.485
same,glycan array binding signal (z-score),[17],-0.336
same,glycan array binding signal (z-score),Fuc(a1-2)Gal6S(b1-4)Glc,-0.633
same,glycan array binding signal (z-score),[18],-0.006
same,glycan array binding signal (z-score),Fuc(a1-2)[Gal(a1-3)]Gal,0.474
same,glycan array binding signal (z-score),[19],-0.631
same,glycan array binding signal (z-score),[20],-0.386
same,glycan array binding signal (z-score),[21],-0.322
same,glycan array binding signal (z-score),[22],0.134
same,glycan array binding signal (z-score),[23],0.417
same,glycan array binding signal (z-score),[24],-0.435
same,glycan array binding signal (z-score),[25],-1.42
same,glycan array binding signal (z-score),[26],-0.358
same,glycan array binding signal (z-score),[27],-0.246
same,glycan array binding signal (z-score),[28],-1

# An excerpt of these results, with bars between the fields.
binder | measurement | setting | value
AntigenI/IIC123 (Streptococcus mutans), C9E3B4 (protein) MASMTGGQQMGRIHFHYFKLAVQPQVNKEIRNNNDINIDRTLVAKQSVVKFQLKTADLPAGRDETTSFVLVDPLPSGYQFNPEATKAASPGFDVTYDNATNTVTFKATAATLATFNADLTKSVATIYPTVVGQVLNDGATYKNNFTLTVNDAYGIKSNVVRVTTPGKPNDPDNPNNNYIKPTKVNKNENGVVIDGKTVLAGSTNYYELTWDLDQYKNDRSSADTIQKGFYYVDDYPEEALELRQDLVKITDANGNEVTGVSVDNYTNLEAAPQEIRDVLSKAGIRPKGAFQIFRADNPREFYDTYVKTGIDLKIVSPMVVKKQMGQTGGSYENQAYQIDFGNGYASNIIINNVPKINPKKDVTLTLDPADTNNVDGQTIPLNTVFNYRLIGGIIPADHSEELFEYNFYDDYDQTGDHYTGQYKVFAKVDITFKDGSIIKSGAELTQYTTAEVDTAKGAITIKFKEAFLRSVSIDSAFQAESYIQMKRIAVGTFENTYINTVNGVTYSSLEHHHHHH | glycan array binding signal (z-score) | [17] | -0.336
same | glycan array binding signal (z-score) | Fuc(a1-2)Gal6S(b1-4)Glc | -0.633
